{
  "source": "PubChem BioAssay AID2685",
  "about": "(National Center for Advancing Translational Sciences (NCATS), 2010)",
  "note": "The whole screen tested about 320,000 compounds, of which about 2,100 (0.66%) were called active. Calls come from the whole dose curve; as a rule, active = well fitted inhibition curve with a large enough effect in the signal ratio, with a control signal flat (not every such curve was filed as active); inconclusive = small, poorly fitted or top-dose-only effect, or effect the other way, or a change in a side signal; inactive = flat fitted curve, though single readings scatter; the % refers to the signal ratio. The inconclusive results got no clear call from the source. % is set by controls: 0 for no effect and ±100 for the full control effect.",
  "data": [
    {"experiment": "qHTS Assay for Lipid Storage Modulators in Drosophila S3 Cells", "settings": "BODIPY lipid droplet fluorescence, 18-24 h, cells fed with added oleic acid; lipid storage change, negative = inhibition: at 46.1 µM (top of the series) unless noted", "method_in_brief": "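Drosophila S3 cells got compounds at several concentrations plus oleic acid (400 uM solution). Laser-scanning cytometry with 488 nm excitation read lipid droplets at 500-530 nm and cells at 575-640 nm. Percent activity was relative to 20 uM Triacsin C.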", "values": [
      {"smiles": "Cc1ccccc1N/N=C/c1sc(=O)n(Cc2cccc(C(=O)O)c2)c1Cl", "lipid storage change, negative = inhibition": "inconclusive: 28.1%"}
    ]}
  ]
}
